# Experimental data: the supplement of paper PMC4604168 (melanoma cell lines)
# This is one part of the list. Single values are uncertain, as repeats are few or missing.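 Cells were imaged in 1,536-well plates, and nuclei stained with an antibody against cleaved PARP were counted against all DNA-stained nuclei to give the apoptosis fraction. Screening doses were chosen to leave most cells alive, and resting and induced cleaved-PARP levels differ strongly between cell lines.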
# System: COLO800
# Experiment: cleaved PARP positive nuclei fraction relative to DMSO control; melanoma cells; higher = more apoptosis
# Settings: library dose: low library concentration; 72 h
row,Structure (SMILES),cleaved PARP positive nuclei fraction
1,"C[C@]1(O)C[C@@H](c2nc(-c3ccc4ccc(-c5ccccc5)nc4c3)c3c(N)nccn32)C1 + C[C@@H]1CCN(C(=O)CC#N)C[C@@H]1N(C)c1ncnc2[nH]ccc12 [CP690550] (first compound 0.4 µM, partner dose 1 µM)",167%
2,"Cn1sc(=O)n(Cc2ccccc2)c1=O + NCC(=O)Nc1ccc(-n2nc(C(F)(F)F)cc2-c2ccc3c(ccc4ccccc43)c2)cc1 [OSU03012] (first compound 0.4 µM, partner dose 1 µM)",33.9%
3,"Cn1sc(=O)n(Cc2ccccc2)c1=O + COc1cc2ncnc(Nc3ccc(Oc4ccccc4)cc3)c2cc1OC [SrcI1] (first compound 0.4 µM, partner dose 2 µM)",85.4%
4,"Cn1cnc2c(F)c(Nc3ccc(Br)cc3Cl)c(C(=O)NOCCO)cc21 [selumetinib] + Oc1nc(-c2ccc(C(F)(F)F)cc2)nc2c1CSCC2 [XAV939] (first compound 0.015 µM, partner dose 2 µM)",77.4%
5,"CCCCCCCCc1ccc(CCC(N)(CO)CO)cc1 [fingolimod] + O=C(CCCCCCC(=O)Nc1ccccc1)NO [vorinostat] (first compound 2 µM, partner dose 0.08 µM)",171%
6,"NC1(c2ccc(-c3nc4ccn5c(=O)[nH]nc5c4cc3-c3ccccc3)cc2)CCC1 + COc1cc2ncnc(Nc3ccc(Oc4ccccc4)cc3)c2cc1OC [SrcI1] (first compound 0.4 µM, partner dose 2 µM)",65.7%
